At least one structure is not confirmed: it was looked up by name or label, or the drawing left a doubt.
System: E1α subunit of immunoprecipitated PDH complex
Assay: 2D-gel isoelectric focusing and Western blot with E1α-specific mAb to follow phosphorylation of immunoprecipitated PDH
Conditions: pH gradient 10 to 3; compared with untreated enzyme

O=C(O)C(Cl)Cl [Dichloroacetate]
Level of phosphorylation of E1α (isoelectric point shift): reduced it to below that of untreated enzyme

Reference: patent US20050239143A1, “Immunocapture-based measurements of mammalian pyruvate dehydrogenase complex” (priority 2002, published 2005)
